The data set is described as follows: peptide made by a vendor. The conditions noted are these: whole synthesis.

In the case of Ac-CDGAVQPDGGQPAVRNER-NH2, the “purity (crude or final not stated)” value is “purity more or about 95%”.

For the origin of these results see patent publication US20020160012A1 (priority 2000, published 2002).
